Binding data for three substances are collected here from article PMC11347664, “KHSRP ameliorates acute liver failure by regulating pre-mRNA splicing through its interaction with SF3B1” (Cell Death & Disease, 2024).

Chains of the proteins cited; added tags and fusions are not shown. Lines headed by an entry give the natural chain unless they say otherwise; changes in a name come on top.
UniProt O75533: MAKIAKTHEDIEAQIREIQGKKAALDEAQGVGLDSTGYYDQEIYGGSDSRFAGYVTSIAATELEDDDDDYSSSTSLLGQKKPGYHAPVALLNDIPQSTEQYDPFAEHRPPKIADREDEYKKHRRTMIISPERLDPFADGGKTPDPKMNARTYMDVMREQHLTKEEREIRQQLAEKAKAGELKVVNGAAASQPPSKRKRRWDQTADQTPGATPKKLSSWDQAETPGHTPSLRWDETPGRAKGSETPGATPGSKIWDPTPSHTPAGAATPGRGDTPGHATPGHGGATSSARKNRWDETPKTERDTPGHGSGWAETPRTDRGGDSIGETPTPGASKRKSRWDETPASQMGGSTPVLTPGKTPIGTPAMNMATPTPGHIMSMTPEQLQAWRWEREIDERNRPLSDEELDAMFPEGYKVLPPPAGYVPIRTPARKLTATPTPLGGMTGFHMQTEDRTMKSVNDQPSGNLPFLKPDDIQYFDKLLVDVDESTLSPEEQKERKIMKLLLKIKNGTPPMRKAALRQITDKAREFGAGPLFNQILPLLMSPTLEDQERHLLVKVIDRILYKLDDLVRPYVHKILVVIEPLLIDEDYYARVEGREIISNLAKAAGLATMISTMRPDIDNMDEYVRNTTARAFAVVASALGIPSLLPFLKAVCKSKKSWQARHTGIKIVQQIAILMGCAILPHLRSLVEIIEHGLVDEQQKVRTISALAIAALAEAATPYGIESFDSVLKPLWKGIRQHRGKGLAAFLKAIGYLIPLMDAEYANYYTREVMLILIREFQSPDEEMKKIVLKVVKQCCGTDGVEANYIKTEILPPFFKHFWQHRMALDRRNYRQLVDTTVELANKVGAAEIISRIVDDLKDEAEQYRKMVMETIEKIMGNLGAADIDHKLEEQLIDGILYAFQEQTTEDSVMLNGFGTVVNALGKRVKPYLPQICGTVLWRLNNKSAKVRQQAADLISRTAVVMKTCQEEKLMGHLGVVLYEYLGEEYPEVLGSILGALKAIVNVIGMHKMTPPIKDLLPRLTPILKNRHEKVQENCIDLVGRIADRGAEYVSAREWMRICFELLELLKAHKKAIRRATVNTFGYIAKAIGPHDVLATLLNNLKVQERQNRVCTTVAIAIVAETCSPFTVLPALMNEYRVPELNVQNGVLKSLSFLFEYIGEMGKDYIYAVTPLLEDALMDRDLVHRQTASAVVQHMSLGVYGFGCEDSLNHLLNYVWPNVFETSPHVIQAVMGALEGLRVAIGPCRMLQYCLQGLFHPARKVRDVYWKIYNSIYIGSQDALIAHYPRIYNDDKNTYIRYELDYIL
UniProt Q15393: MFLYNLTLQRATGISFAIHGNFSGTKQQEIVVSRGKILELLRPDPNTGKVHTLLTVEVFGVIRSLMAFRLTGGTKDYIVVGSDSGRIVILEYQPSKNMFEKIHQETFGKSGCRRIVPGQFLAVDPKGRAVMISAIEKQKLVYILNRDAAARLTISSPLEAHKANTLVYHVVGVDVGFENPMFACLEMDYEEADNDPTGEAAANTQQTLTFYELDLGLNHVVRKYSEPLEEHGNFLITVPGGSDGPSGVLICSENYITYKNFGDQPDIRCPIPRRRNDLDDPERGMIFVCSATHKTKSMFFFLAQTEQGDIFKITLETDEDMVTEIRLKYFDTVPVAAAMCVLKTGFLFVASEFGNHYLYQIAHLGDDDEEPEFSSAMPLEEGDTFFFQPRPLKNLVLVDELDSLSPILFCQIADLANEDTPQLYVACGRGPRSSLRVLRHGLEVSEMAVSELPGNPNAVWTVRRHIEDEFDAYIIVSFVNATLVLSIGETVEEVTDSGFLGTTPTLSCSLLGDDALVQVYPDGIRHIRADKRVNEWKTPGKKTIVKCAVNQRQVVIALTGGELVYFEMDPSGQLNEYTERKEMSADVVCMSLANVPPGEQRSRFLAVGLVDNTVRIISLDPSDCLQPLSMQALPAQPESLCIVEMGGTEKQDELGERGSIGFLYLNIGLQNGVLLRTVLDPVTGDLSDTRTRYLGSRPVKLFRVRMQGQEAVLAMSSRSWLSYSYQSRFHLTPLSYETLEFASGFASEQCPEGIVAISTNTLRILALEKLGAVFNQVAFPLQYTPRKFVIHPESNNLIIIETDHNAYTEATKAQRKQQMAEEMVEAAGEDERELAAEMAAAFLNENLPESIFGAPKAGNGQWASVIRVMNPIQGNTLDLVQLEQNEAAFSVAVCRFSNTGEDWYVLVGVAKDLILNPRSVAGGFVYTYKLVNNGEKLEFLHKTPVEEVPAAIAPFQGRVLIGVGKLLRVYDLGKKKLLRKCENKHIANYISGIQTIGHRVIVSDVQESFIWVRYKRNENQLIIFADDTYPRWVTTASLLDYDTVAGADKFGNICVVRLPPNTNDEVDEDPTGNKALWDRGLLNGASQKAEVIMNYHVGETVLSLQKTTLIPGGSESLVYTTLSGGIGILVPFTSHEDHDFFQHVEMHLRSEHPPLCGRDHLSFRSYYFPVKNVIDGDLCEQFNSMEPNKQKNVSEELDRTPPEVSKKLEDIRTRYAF

In assay [1] the target is T1, KH-type splicing regulatory protein (human (endogenous in HL7702)) (UniProt Q92945).
T1 sequence: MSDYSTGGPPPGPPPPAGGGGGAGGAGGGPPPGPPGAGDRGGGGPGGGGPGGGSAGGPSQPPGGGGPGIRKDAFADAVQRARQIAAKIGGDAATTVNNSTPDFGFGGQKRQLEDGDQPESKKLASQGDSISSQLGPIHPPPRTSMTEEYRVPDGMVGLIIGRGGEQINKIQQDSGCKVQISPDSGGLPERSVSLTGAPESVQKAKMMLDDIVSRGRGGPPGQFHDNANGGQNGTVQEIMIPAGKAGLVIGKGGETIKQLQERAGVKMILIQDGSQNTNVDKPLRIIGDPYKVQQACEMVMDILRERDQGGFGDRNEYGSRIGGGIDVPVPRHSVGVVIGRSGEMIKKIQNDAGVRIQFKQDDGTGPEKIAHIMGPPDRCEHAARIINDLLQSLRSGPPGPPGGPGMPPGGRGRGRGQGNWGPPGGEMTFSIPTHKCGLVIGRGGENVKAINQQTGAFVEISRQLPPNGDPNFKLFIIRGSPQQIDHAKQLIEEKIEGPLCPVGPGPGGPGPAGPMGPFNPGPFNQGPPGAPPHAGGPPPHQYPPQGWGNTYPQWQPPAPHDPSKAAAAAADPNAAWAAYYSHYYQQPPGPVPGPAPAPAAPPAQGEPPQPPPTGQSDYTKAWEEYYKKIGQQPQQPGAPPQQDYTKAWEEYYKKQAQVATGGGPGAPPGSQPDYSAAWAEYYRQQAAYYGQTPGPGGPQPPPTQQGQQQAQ
The assay can be described thus: co-IP; protein extracts from HL7702 cells immunoprecipitated with antibodies for KHSRP or SF3B1 and immunoblotted for the indicated proteins. Background: In western blotting, separated proteins are transferred to a membrane and probed.

For assay [2], the target named is T1, KH-type splicing regulatory protein (human (endogenous in HL7702)). The assay is described as follows: co-IP; HL7702 cells that overexpressed different HA-tagged SF3B1 truncations; KHSRP detected.

Results are given in words; binding and its absence hold for the method and conditions named. In cells and extracts the contact can be indirect. Some binding calls cover weakened binding; strength is not graded here.

Consider “splicing factor 3b subunit 1 (from UniProt O75533 1-1304)”, for which the binding result in assay [1] is listed as “binds”. For the substance SF3B3 (from UniProt Q15393 1-1217), the binding entry in assay [1] was “binds”. “HA-SF3B1 amino acids 955–1304 (HEAT 11–22 domain) (from UniProt O75533 955-1304) (domain or fragment)”: the binding result in assay [2] is “binds”.
